# Experimental data taken from the supplement of paper PMC7125110.
# ± gives the standard error. Many entries were measured with a wide error.
# B1: glmS ribozyme (parent)
# chain: AUAAAAGCGCCAGAACUACAGAAAUGUAGUUGACGAGGAGGAGGUUUAUCGAAUUUUCGGCGGAUGCCUCCAAA
# Variants of: B1
# Assay: kcat; higher = faster cleavage; RNA array
# Settings: with glucosamine-6-phosphate
# Summary of the method: (§1)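 kcat and KM were obtained from weighted Michaelis–Menten fits across concentrations of kobs values. Those came from one- or two-exponential decay fits to per-tile medians normalised to baseline and to non-cleaving reference variants. The variants were barcoded ribozymes transcribed in situ by E. coli RNA polymerase on sequenced MiSeq chips and tracked through a hybridised Cy3 probe at 37 °C, with 40 μM to 10 mM glucosamine-6-phosphate in HEPES/KCl/Mg(OAc)2 buffer flowed in.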
row,Variant,kcat
1,A6C C70A,1.39e-05 ± 2.5e-06 s⁻¹
2,A6C G29C C58G C71A,5.61e-05 ± 2.9e-05 s⁻¹
3,A6C U30G,2.38e-05 ± 1.3e-05 s⁻¹
4,A6C U31G,2.39e-05 ± 9.7e-07 s⁻¹
5,A6C U55A,9.15e-05 ± 2.5e-05 s⁻¹
6,A6G C16U A39C,0.000121 ± 6.3e-05 s⁻¹
7,A6G U65A,7.49e-05 ± 1.1e-05 s⁻¹
8,A6U A12G G66U,4.75e-05 ± 3.2e-05 s⁻¹
9,A6U A14C,0.000106 ± 7.1e-05 s⁻¹
10,A6U A14G,0.000657 ± 7.8e-05 s⁻¹
11,A6U C16G,5.15e-05 ± 3.5e-06 s⁻¹
12,A6U G43U,< 1e-05 s⁻¹
13,G7A G38A,< 1e-05 s⁻¹
14,G7A U54A,9.7e-05 ± 5.3e-05 s⁻¹
15,G7C G35A,< 1e-05 s⁻¹
16,G7C G38U C70G,1.32e-05 ± 1e-05 s⁻¹
17,G7C U31C,< 1e-05 s⁻¹
18,G7U C61U C68G,3.13e-05 ± 2.3e-05 s⁻¹
19,G7U C67G,< 1e-05 s⁻¹
20,C8A G60A,< 1e-05 s⁻¹
21,G9A C11G G35U G37U C61U,< 1e-05 s⁻¹

row,Variant,kcat
1,C10A,< 1e-05 s⁻¹
2,C10A A14U A52U C70G,0.000142 ± 0.0001 s⁻¹
3,C10A A14U G59U C71G,1.42e-05 ± 3.8e-06 s⁻¹
4,C10A A64C C67G,5.91e-05 ± 3.1e-05 s⁻¹
5,C10A C11A G51A,< 1e-05 s⁻¹
6,C10A G32A U47A,< 1e-05 s⁻¹
7,C10A G62U C70G,6.75e-05 ± 3.9e-05 s⁻¹
8,C10A U31A C58G C67A,5.35e-05 ± 3.1e-05 s⁻¹
9,C10A U56C,< 1e-05 s⁻¹
10,C10G A12G G38U C50A A52U,1.78e-05 ± 9.3e-06 s⁻¹
11,C10G C11G A33U C68G,5.87e-05 ± 3.1e-05 s⁻¹
12,C10U A33G G38U C68U,2.17e-05 ± 1.2e-05 s⁻¹
13,C10U G44U G66A,1.01e-05 ± 7.1e-06 s⁻¹
14,C10U U55A C70U,1.94e-05 ± 1.1e-05 s⁻¹
15,C11A A12U,0.00147 ± 0.00076 s⁻¹
16,C11A A15G,0.000255 ± 2.9e-05 s⁻¹
17,C11A C50A C68G,5.64e-05 ± 2.8e-05 s⁻¹
18,C11A U49G,< 1e-05 s⁻¹
19,C11U A12C C70G,4.6e-05 ± 2.8e-05 s⁻¹
20,C11U C16A,0.000174 ± 7e-06 s⁻¹
21,C11U C16U,0.00296 ± 0.002 s⁻¹

row,Variant,kcat
1,C11U C68A C71G,5.97e-05 ± 2.3e-05 s⁻¹
2,C11U G13U,6.21e-05 ± 5.4e-06 s⁻¹
3,C11U G51U C70U,5.97e-05 ± 4.5e-05 s⁻¹
4,C11U U46G,0.000268 ± 4.3e-05 s⁻¹
5,C11U U47A,0.00344 ± 0.003 s⁻¹
6,A12C C67A,0.00471 ± 0.0013 s⁻¹
7,A12C C71A,0.00295 ± 0.0015 s⁻¹
8,A12C G32U,0.000616 ± 0.00035 s⁻¹
9,A12C G37C,8.54e-05 ± 2.4e-06 s⁻¹
10,A12C G40A,0.00343 ± 0.0021 s⁻¹
11,A12C G41U,0.000937 ± 0.00053 s⁻¹
12,A12C G43U,5.32e-05 ± 9.5e-07 s⁻¹
13,A12C U54C,0.0233 ± 0.015 s⁻¹
14,A12G A14G U57A C68A U69G,5.39e-05 ± 3.1e-05 s⁻¹
15,A12G A33U,1.86e-05 ± 6.4e-06 s⁻¹
16,A12G G38U A39U,< 1e-05 s⁻¹
17,A12G U31A,0.000422 ± 0.00026 s⁻¹
18,A12G U47C,0.000813 ± 9.1e-05 s⁻¹
19,A12G U55A,0.0021 ± 0.0015 s⁻¹
20,A12U A14C,0.00505 ± 0.0013 s⁻¹

# Some of the entries so far, as tab-separated lines:
row	Variant	kcat
16	C11A A15G	0.000255 ± 2.9e-05 s⁻¹
18	C11A U49G	< 1e-05 s⁻¹
19	C11U A12C C70G	4.6e-05 ± 2.8e-05 s⁻¹
21	C11U C16U	0.00296 ± 0.002 s⁻¹
1	C11U C68A C71G	5.97e-05 ± 2.3e-05 s⁻¹
2	C11U G13U	6.21e-05 ± 5.4e-06 s⁻¹
3	C11U G51U C70U	5.97e-05 ± 4.5e-05 s⁻¹
4	C11U U46G	0.000268 ± 4.3e-05 s⁻¹
5	C11U U47A	0.00344 ± 0.003 s⁻¹
6	A12C C67A	0.00471 ± 0.0013 s⁻¹
7	A12C C71A	0.00295 ± 0.0015 s⁻¹
8	A12C G32U	0.000616 ± 0.00035 s⁻¹
9	A12C G37C	8.54e-05 ± 2.4e-06 s⁻¹
10	A12C G40A	0.00343 ± 0.0021 s⁻¹
11	A12C G41U	0.000937 ± 0.00053 s⁻¹
12	A12C G43U	5.32e-05 ± 9.5e-07 s⁻¹
13	A12C U54C	0.0233 ± 0.015 s⁻¹
14	A12G A14G U57A C68A U69G	5.39e-05 ± 3.1e-05 s⁻¹
15	A12G A33U	1.86e-05 ± 6.4e-06 s⁻¹
16	A12G G38U A39U	< 1e-05 s⁻¹
18	A12G U47C	0.000813 ± 9.1e-05 s⁻¹
19	A12G U55A	0.0021 ± 0.0015 s⁻¹
20	A12U A14C	0.00505 ± 0.0013 s⁻¹

# Variants of: B1
# Assay: self-cleavage kobs at 2500 uM GlcN6P; higher = faster cleavage; RNA array
# Settings: with glucosamine-6-phosphate
# Summary of the method: as §1
row,Variant,self-cleavage kobs at 2500 uM GlcN6P
1,A6C G29C C58G C71A,3.95e-05 ± 3.6e-05 s⁻¹
2,A6G C16U A39C,2.07e-05 ± 1.2e-05 s⁻¹
3,A6U A12G G66U,0.000799 ± 0.00064 s⁻¹
4,A6U A14C,1.35e-05 ± 9.7e-06 s⁻¹
5,C10A,< 1e-05 s⁻¹
6,C10U U55A C70U,2.39e-05 ± 2.2e-05 s⁻¹
7,C11U A12C C70G,8.9e-05 ± 5.3e-05 s⁻¹
8,C11U C68A C71G,5.45e-05 ± 3.3e-05 s⁻¹

# Variants of: B1
# Assay: KM; higher = weaker cofactor use; RNA array
# Settings: with glucosamine-6-phosphate
# Summary of the method: as §1
row,Variant,KM
1,A6C U30G,3640 ± 2600 µM
2,A6C U31G,3730 ± 510 µM
3,A6C U55A,1960 ± 1800 µM
4,A6G C16U A39C,10000 ± 9900 µM
5,A6G U65A,2190 ± 1200 µM
6,A6U A14G,2280 ± 480 µM
7,A6U C16G,3290 ± 720 µM
8,A6U G43U,6890 ± 1100 µM
9,G7A U54A,23900 ± 18000 µM
10,C8A G60A,86.3 ± 25 µM
11,C10A,559 ± 95 µM
12,C11A A12U,3070 ± 2500 µM
13,C11A A15G,1280 ± 310 µM
14,C11U C16A,1760 ± 190 µM
15,C11U C16U,4590 ± 3800 µM
16,C11U G13U,1020 ± 420 µM
17,C11U U46G,2460 ± 740 µM
18,A12C C67A,1180 ± 470 µM
19,A12C C71A,2670 ± 2000 µM
20,A12C G32U,13800 ± 10000 µM
21,A12C G37C,6970 ± 420 µM
22,A12C G40A,1630 ± 1300 µM
23,A12C G41U,1660 ± 1400 µM
24,A12C G43U,1200 ± 86 µM
25,A12C U54C,1870 ± 1600 µM
26,A12G A33U,2030 ± 1500 µM
27,A12G U31A,9480 ± 9000 µM
28,A12G U47C,3820 ± 720 µM
29,A12U A14C,1630 ± 560 µM

# Variants of: B1
# Assay: self-cleavage kobs at 640 uM GlcN6P; higher = faster cleavage; RNA array
# Settings: with glucosamine-6-phosphate
# Summary of the method: as §1
row,Variant,self-cleavage kobs at 640 uM GlcN6P
1,A6G C16U A39C,2.53e-05 ± 1.9e-05 s⁻¹
2,C10A A64C C67G,6.02e-05 ± 3.8e-05 s⁻¹
3,C10U A33G G38U C68U,3.19e-05 ± 3.1e-05 s⁻¹
4,C11U G13U,1.61e-05 ± 1.5e-05 s⁻¹
5,A12C G43U,1.85e-05 ± 1.7e-05 s⁻¹

# Variants of: B1
# Assay: self-cleavage kobs at 10000 uM GlcN6P; higher = faster cleavage; RNA array
# Settings: with glucosamine-6-phosphate
# Summary of the method: as §1
row,Variant,self-cleavage kobs at 10000 uM GlcN6P
1,G7A U54A,2.87e-05 ± 1.9e-05 s⁻¹
2,G7U C61U C68G,3.73e-05 ± 1.9e-05 s⁻¹
3,C11U A12C C70G,3.06e-05 ± 2e-05 s⁻¹
4,C11U C68A C71G,3.58e-05 ± 1.9e-05 s⁻¹
5,A12G A14G U57A C68A U69G,3.77e-05 ± 2e-05 s⁻¹

# Variants of: B1
# Assay: self-cleavage kobs at 40 uM GlcN6P; higher = faster cleavage; RNA array
# Settings: with glucosamine-6-phosphate
# Summary of the method: as §1
row,Variant,self-cleavage kobs at 40 uM GlcN6P
1,C10A A14U A52U C70G,2.94e-05 ± 2.6e-05 s⁻¹
2,C11U C68A C71G,3.12e-05 ± 2.3e-05 s⁻¹
3,A12G A14G U57A C68A U69G,4.24e-05 ± 2.2e-05 s⁻¹

# Variants of: B1
# Assay: self-cleavage kobs at 160 uM GlcN6P; higher = faster cleavage; RNA array
# Settings: with glucosamine-6-phosphate
# Summary of the method: as §1
row,Variant,self-cleavage kobs at 160 uM GlcN6P
1,C11U U46G,2.02e-05 ± 1.8e-05 s⁻¹
